Source: publication doi:10.1101/2024.02.12.579820
These are yes or no findings as the source states them, for the method shown. In cells and extracts the contact can be indirect. Some binding calls cover weakened binding; strength is not graded here.

Chains of the proteins cited; added tags and fusions are not shown.
UniProt Q6PDQ2: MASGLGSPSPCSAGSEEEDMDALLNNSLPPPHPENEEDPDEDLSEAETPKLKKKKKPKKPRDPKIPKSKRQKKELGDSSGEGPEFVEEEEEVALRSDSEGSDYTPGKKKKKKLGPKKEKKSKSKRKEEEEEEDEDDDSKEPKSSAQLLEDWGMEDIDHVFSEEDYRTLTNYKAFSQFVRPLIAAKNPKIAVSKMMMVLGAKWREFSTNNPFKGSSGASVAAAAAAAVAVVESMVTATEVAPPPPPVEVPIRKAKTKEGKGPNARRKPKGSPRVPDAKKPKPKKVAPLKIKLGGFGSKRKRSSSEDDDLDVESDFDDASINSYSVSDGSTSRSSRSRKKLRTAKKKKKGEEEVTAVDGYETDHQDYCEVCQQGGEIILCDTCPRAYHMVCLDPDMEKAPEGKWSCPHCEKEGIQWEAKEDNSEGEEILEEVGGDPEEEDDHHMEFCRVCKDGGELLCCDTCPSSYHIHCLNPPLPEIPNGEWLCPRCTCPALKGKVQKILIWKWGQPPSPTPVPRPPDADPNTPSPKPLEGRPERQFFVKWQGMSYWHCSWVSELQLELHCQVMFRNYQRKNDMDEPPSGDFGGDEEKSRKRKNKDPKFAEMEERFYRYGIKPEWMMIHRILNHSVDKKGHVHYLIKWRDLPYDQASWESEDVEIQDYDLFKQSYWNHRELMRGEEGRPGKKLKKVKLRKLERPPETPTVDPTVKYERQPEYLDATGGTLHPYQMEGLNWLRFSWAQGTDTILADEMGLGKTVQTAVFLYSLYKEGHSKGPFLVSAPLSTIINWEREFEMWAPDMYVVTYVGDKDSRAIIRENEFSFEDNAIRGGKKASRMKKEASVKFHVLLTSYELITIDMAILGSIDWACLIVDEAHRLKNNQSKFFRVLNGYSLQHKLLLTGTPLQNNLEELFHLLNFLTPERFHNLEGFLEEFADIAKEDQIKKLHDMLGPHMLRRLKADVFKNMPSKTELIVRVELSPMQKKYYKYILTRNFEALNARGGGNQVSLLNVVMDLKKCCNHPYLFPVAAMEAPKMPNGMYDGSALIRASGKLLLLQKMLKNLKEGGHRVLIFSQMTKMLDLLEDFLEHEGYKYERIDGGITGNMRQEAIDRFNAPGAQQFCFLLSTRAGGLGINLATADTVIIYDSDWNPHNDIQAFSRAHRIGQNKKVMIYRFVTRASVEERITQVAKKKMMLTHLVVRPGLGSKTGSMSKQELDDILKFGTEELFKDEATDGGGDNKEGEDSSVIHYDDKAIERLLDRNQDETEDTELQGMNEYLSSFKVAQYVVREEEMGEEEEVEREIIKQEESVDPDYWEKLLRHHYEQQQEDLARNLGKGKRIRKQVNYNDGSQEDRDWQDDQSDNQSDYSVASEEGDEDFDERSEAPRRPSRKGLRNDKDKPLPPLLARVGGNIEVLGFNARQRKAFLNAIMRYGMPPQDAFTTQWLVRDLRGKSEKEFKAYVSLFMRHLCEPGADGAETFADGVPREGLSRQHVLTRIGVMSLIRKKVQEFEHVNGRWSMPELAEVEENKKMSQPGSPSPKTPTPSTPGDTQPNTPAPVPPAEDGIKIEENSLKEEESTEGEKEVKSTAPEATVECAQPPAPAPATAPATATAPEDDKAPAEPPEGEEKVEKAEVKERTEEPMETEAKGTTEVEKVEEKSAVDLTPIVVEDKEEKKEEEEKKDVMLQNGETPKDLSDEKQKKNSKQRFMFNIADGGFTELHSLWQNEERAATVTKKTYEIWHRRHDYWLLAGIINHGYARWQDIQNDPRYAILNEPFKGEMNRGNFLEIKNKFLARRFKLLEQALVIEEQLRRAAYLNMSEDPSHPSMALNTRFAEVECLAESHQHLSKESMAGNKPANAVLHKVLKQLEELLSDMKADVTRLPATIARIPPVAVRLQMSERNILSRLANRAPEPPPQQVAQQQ

T1: Adnp (mouse (endogenous in P3 neocortex or hippocampus)) (UniProt Q9Z103)
T1 sequence: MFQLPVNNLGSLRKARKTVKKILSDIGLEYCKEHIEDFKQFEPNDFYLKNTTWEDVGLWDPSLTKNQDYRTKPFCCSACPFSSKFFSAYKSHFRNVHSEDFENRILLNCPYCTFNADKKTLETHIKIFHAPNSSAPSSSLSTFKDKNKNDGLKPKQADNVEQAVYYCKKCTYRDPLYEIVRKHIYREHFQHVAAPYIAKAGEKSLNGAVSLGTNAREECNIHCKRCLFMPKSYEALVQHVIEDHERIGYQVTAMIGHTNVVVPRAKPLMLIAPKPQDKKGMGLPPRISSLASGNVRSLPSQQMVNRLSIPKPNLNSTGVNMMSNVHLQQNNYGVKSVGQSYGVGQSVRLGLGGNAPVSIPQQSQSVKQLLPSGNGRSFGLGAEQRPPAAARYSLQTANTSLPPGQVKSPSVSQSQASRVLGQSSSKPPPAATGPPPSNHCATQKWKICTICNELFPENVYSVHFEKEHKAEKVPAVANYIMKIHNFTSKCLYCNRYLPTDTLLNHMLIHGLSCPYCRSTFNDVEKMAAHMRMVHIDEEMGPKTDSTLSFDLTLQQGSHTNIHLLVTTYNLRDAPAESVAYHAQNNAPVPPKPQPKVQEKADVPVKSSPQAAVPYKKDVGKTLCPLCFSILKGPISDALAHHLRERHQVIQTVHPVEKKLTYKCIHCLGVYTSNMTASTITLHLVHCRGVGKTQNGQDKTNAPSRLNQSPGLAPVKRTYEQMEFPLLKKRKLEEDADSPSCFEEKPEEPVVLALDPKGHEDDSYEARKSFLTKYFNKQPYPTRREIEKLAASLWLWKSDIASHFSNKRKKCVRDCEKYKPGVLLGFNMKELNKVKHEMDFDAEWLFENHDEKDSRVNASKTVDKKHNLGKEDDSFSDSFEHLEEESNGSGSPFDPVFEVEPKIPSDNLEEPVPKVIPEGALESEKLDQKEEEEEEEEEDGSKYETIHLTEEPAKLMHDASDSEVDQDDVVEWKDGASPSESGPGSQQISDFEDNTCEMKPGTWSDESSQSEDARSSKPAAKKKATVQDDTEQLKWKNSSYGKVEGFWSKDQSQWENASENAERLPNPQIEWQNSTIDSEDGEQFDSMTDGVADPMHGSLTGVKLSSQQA


Columns and labels:
[1] = target: T1, Adnp (mouse (endogenous in P3 neocortex or hippocampus)); experiment: co-IP
[2] = target: Chd4 (mouse (endogenous in P3 neocortex or hippocampus)) (UniProt Q6PDQ2); experiment: co-IP

Row | binding [1] | binding [2] | Molecule
1 | binds | – | Chd4 (from UniProt Q6PDQ2 1-1915)
2 | – | binds | Adnp (protein, UniProt Q9Z103 1-1108) MFQLPVNNLGSLRKARKTVKKILSDIGLEYCKEHIEDFKQFEPNDFYLKNTTWEDVGLWDPSLTKNQDYRTKPFCCSACPFSSKFFSAYKSHFRNVHSEDFENRILLNCPYCTFNADKKTLETHIKIFHAPNSSAPSSSLSTFKDKNKNDGLKPKQADNVEQAVYYCKKCTYRDPLYEIVRKHIYREHFQHVAAPYIAKAGEKSLNGAVSLGTNAREECNIHCKRCLFMPKSYEALVQHVIEDHERIGYQVTAMIGHTNVVVPRAKPLMLIAPKPQDKKGMGLPPRISSLASGNVRSLPSQQMVNRLSIPKPNLNSTGVNMMSNVHLQQNNYGVKSVGQSYGVGQSVRLGLGGNAPVSIPQQSQSVKQLLPSGNGRSFGLGAEQRPPAAARYSLQTANTSLPPGQVKSPSVSQSQASRVLGQSSSKPPPAATGPPPSNHCATQKWKICTICNELFPENVYSVHFEKEHKAEKVPAVANYIMKIHNFTSKCLYCNRYLPTDTLLNHMLIHGLSCPYCRSTFNDVEKMAAHMRMVHIDEEMGPKTDSTLSFDLTLQQGSHTNIHLLVTTYNLRDAPAESVAYHAQNNAPVPPKPQPKVQEKADVPVKSSPQAAVPYKKDVGKTLCPLCFSILKGPISDALAHHLRERHQVIQTVHPVEKKLTYKCIHCLGVYTSNMTASTITLHLVHCRGVGKTQNGQDKTNAPSRLNQSPGLAPVKRTYEQMEFPLLKKRKLEEDADSPSCFEEKPEEPVVLALDPKGHEDDSYEARKSFLTKYFNKQPYPTRREIEKLAASLWLWKSDIASHFSNKRKKCVRDCEKYKPGVLLGFNMKELNKVKHEMDFDAEWLFENHDEKDSRVNASKTVDKKHNLGKEDDSFSDSFEHLEEESNGSGSPFDPVFEVEPKIPSDNLEEPVPKVIPEGALESEKLDQKEEEEEEEEEDGSKYETIHLTEEPAKLMHDASDSEVDQDDVVEWKDGASPSESGPGSQQISDFEDNTCEMKPGTWSDESSQSEDARSSKPAAKKKATVQDDTEQLKWKNSSYGKVEGFWSKDQSQWENASENAERLPNPQIEWQNSTIDSEDGEQFDSMTDGVADPMHGSLTGVKLSSQQA
